Source: US20050032692A1
Where a chain is given by its changes, count along the chain named. Numbers in names are those of the source. Results are given in words; binding and its absence hold for the method and conditions named. In cells and extracts the contact can be indirect. Some results given as binding are weak or reduced against the parent protein; the word gives no strength.

Chains of the proteins cited; added tags and fusions are not shown.
UniProt P06493: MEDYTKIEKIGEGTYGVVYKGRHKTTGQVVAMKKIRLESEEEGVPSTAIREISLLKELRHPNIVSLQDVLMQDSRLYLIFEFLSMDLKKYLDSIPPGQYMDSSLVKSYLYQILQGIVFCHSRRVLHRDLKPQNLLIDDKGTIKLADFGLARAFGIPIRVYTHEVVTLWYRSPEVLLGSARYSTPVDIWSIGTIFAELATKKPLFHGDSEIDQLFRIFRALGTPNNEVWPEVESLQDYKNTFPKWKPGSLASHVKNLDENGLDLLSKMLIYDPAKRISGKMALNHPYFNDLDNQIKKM

T1: endogenous FoxM1B protein of mouse liver and mouse embryo fibroblasts (mouse) (UniProt O08696)
T1 sequence (looked up): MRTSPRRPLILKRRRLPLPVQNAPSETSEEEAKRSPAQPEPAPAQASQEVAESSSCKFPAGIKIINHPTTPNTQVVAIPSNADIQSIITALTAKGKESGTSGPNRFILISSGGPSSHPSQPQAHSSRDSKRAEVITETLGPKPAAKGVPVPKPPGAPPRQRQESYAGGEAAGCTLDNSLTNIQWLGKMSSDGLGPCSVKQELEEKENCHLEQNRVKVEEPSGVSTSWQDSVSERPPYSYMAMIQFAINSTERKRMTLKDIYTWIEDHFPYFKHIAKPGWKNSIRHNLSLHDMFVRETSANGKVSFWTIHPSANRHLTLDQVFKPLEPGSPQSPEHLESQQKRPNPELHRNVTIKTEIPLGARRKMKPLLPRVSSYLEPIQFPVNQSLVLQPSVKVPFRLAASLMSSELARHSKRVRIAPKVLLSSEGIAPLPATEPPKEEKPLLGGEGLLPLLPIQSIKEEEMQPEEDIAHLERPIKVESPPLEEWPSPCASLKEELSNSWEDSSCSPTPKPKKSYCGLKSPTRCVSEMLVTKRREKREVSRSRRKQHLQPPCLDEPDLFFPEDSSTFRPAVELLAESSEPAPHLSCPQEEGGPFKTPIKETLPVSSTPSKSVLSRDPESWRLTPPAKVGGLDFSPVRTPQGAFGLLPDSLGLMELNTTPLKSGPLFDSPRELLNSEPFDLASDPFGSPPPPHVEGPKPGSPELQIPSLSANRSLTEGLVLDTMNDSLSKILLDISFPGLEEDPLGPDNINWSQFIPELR

B1: T7-FoxM1B T585A mutant protein (protein, not shown: small tags and cut ends)
chain: MKTSPRRPLILKRRRLPLPVQNAPSETSEEEPKRSPAQQESNQAEASKEVAESNSCKFPAGIKIINHPTMPNTQVVAIPNNANIHSIITALTAKGKESGSSGPNKFILISCGGAPTQPPGLRPQTQTSYDAKRTEVTLETLGPKPAARDVNLPRPPGALCEQKRETCADGEAAGCTINNSLSNIQWLRKMSSDGLGSRSIKQEMEEKENCHLEQRQVKVEEPSRPSASWQNSVSERPPYSYMAMIQFAINSTERKRMTLKDIYTWIEDHFPYFKHIAKPGWKNSIRHNLSLHDMFVRETSANGKVSFWTIHPSANRYLTLDQVFKQQKRPNPELRRNMTIKTELPLGARRKMKPLLPRVSSYLVPIQFPVNQSLVLQPSVKVPLPLAASLMSSELARHSKRVRIAPKVLLAEEGIAPLSSAGPGKEEKLLFGEGFSPLLPVQTIKEEEIQPGEEMPHLARPIKVESPPLEEWPSPAPSFKEESSHSWEDSSQSPTPRPKKSYSGLRSPTRCVSEMLVIQHRERRERSRSRRKQHLLPPCVDEPELLFSEGPSTSRWAAELPFPADSSDPASQLSYSQEVGGPFKAPIKETLPISSTPSKSVLPRTPESWRLTPPAKVGGLDFSPVQTSQGASDPLPDPLGLMDLSTTPLQSAPPLESPQRLLSSEPLDLISVPFGNSSPSDIDVPKPGSPEPQVSGLAANRSLTEGLVLDTMNDSLSKILLDISFPGLDEDPLGPDNINWSQFIPELQ
B2: endogenous p19^ARF tumor suppressor protein of mouse liver and mouse embryo fibroblasts (protein, UniProt Q64364 1-169, looked up)
chain: MGRRFLVTVRIQRAGRPLQERVFLVKFVRSRRPRTASCALAFVNMLLRLERILRRGPHRNPGPGDDDGQRSRSSSSAQLRCRFELRGPHYLLPPGARRSAGRLPGHAGGAARVRGSAGCARCLGSPAARLGPRAGTSRHRAIFAFRWVLFVFRWVVFVYRWERRPDRRA
B3: T7-FoxM1B T596A mutant protein (protein, not shown: small tags and cut ends)
chain: B1 chain with A585T, T596A
B4: T7-FoxM1B S657A mutant protein (protein, not shown: small tags and cut ends)
chain: B1 chain with A585T, S657A

Columns and labels:
Cdk1 protein = Cdk1 protein (UniProt P06493); test: Co-IP from transfected U2OS extracts with Cdk1 antibody, Western blot with T7 tag antibody
[1] = molecular target: T1, endogenous FoxM1B protein of mouse liver and mouse embryo fibroblasts (mouse); test: Co-IP of liver or MEF extracts with p19ARF antibody, Western blot with mouse FoxM1B antibody

Binder	binding (Cdk1 protein)	binding [1]
B1	binds	–
B2	–	binds
B3	binds	–
B4	binds	–
